According to publication PMC12595502:
Results are given in words; binding and its absence hold for the method and conditions named. Binding calls can cover weak binding; strength is not graded here. Tags and fused reporters may be left off the sequences shown.

Target: GAL4 DNA binding domain-fused syntaxin1 B cytosolic fraction (UniProt P61265)
Assay: two-hybrid

Molecule	binding
GAL4 DNA activating domain-fused Syb2 cytosolic fraction, E78A (from UniProt P63045) (domain or fragment)	binds
GAL4 DNA activating domain-fused Syb2 cytosolic fraction, G73W (from UniProt P63045) (domain or fragment)	binds
GAL4 DNA activating domain-fused Complexin2 (protein, UniProt P84087 1-134) MDFVMKQALGGATKDMGKMLGGEEEKDPDAQKKEEERQEALRQQEEERKAKHARMEAEREKVRQQIRDKYGLKKKEEKEAEEKAALEQPCEGSLTRPKKAIPAGCGDEEEEEEESILDTVLKYLPGPLQDMFKK	binds
